# Assay results from patent US12479812B2, “Fatty acid derivatives and their use” (THE UNITED STATES OF AMERICA, as represented by the …, priority 2017, dated 2025).
# Columns and labels:
# [1] = Chronic Daily Headache trial, plasma mediators after 12-week LA lowering diet; design: species or system human; details: 12 weeks; patients with chronic daily headache
# [2] = UPLC-MS/MS quantitation of mediators in psoriatic lesion and control human skin; details: endogenous level; for percent as free acid: control human skin; for free concentration in psoriatic lesions compared to control skin: free acid pool; for share found in the esterified lipid pool: human skin
SMILES,plasma concentration after LA lowering dietary intervention [1],percent as free acid [2],free concentration in psoriatic lesions compared to control skin [2],share found in the esterified lipid pool [2]
"CCCCCC(O)/C=C/C1OC1CCCCCCCC(=O)O (stereo not drawn) [13H-9,10E-LA, 13-hydroxy(H)-9,10-trans-epoxy-(E)-octadecenoate]",significantly decreased,0.05%,9 fold,> 99.5%
"CCCCCC1OC1C(O)/C=C\CCCCCCCC(=O)O (stereo not drawn) [11H-12,13E-LA, 11-hydroxy(H)-12,13-trans-epoxy-(E)-octadecenoate]",significantly decreased,44.4%,> 6 fold,–
"CCCCCC1OC1/C=C/C(=O)CCCCCCCC(=O)O (stereo not drawn) [9K-12,13E-LA, 9-keto(K)-12,13-trans-epoxy-(E)-octadecenoate]",–,–,> 30 fold,> 99%
